For data set [1], the system named is H69-tumor xenograft and organs. The data set is described as follows: Dosimetry (absorbed dose from 212Pb biodistribution, RADAR mouse phantom). The settings on record: RBE = 5. The data set is classed as in vivo.
The nature of data set [2]: general procedure: Fmoc solid-phase peptide synthesis; 2-chlorotrityl chloride resin (0.25 g, average loading capacity: 1.6 mmol/g); HATU/DIPEA; PyBop/DIPEA for chelator. The settings on record: whole synthesis; for final HPLC purity: HPLC (Waters 2695, diode array detector).
A short description of data set [3]: general procedure: Fmoc solid-phase peptide synthesis; 2-chlorotrityl chloride resin; HATU/DIPEA; PyBop/DIPEA for chelator. Conditions: whole synthesis, scale 40 µmol.
Setting [4] is: scale of the general procedure 40 µmol.

For some assays here: HELM strings list residues between dots; [ac] is acetyl, [am] amide, other brackets name non-standard units. A value given as a limit tells only on which side of the number the result lay.

In the case of `C[C@@H](O)[C@H](NC(=O)[C@@H]1CSSC[C@H](NC(=O)[C@@H](Cc2ccccc2)NC(=O)[C@H]2CC[C@H](CNC(=O)CN3CCN(CC(N)=O)CCN(CC(N)=O)CCN(CC(N)=O)CC3)CC2)C(=O)N[C@@H](Cc2ccc(O)cc2)C(=O)N[C@H](Cc2c[nH]c3ccccc23)C(=O)N[C@@H](CCCCN)C(=O)N[C@@H]([C@@H](C)O)C(=O)N1)C(=O)O` [[^212Pb]Pb-eSOMA-01, metal not drawn], in data set [1], the “Absorbed dose per administered activity, Kidneys” value was 121.73 ± 14.57 Gy/MBq; the “Absorbed dose per administered activity, Large Intestine” value is reported as 2.03 ± 0.26 Gy/MBq; the “Absorbed dose per administered activity, Liver” value is listed as 9.03 ± 2.24 Gy/MBq; the “Absorbed dose per administered activity, Lungs” value was found to be 3.20 ± 0.40 Gy/MBq. In data set [1], the “Absorbed dose per administered activity, Pancreas” value was 5.40 ± 0.14 Gy/MBq; the “Absorbed dose per administered activity, Spleen” value was 0.73 ± 0.19 Gy/MBq; the “Absorbed dose per administered activity, Stomach wall” value was determined as 5.78 ± 0.77 Gy/MBq; the “Absorbed dose per administered activity, Tumor” value is 35.49 ± 9.89 Gy/MBq. For the same compound, in data set [1] (listed as [^212Pb]Pb-eESOMA-01), the “Absorbed dose per administered activity, Kidneys” value turned out to be 121.73 Gy/MBq and the “Absorbed dose per administered activity, Tumor” value worked out at 35.49 Gy/MBq.

The compound “D-Phe-cyclo[Cys-Tyr-D-Trp-Lys(ivDde)-Thr-Cys]-Thr” gave an isolated yield in data set [2] (setting [4]) of 22%.

As to “DO3AM-Amcha-D-Phe-cyclo[Cys-Tyr-D-Trp-Lys-Thr-Cys]-Thr-OH”, the “final HPLC purity” value in data set [2] (setting [4]) is > 99%. Further, in data set [2] (scale 40 µmol), the isolated mass worked out at 7.4 mg and the isolated yield worked out at 12%.

“PEPTIDE1{[DO3AM].[Pip].[dF].C.Y.[dW].K.T.C.T}$PEPTIDE1,PEPTIDE1,4:R3-9:R3$$$V2.0” came in with an isolated mass in data set [2] of 4.2 mg. In data set [2] (setting [4]), the “final HPLC purity” value is recorded as > 98% and the isolated yield worked out at 7%.

“DO3AM-D-Phe-cyclo[Cys-Tyr-D-Trp-Lys-Thr-Cys]-Thr-OH [DOTAM-TATE]” gave an isolated mass in data set [3] of 6.3 mg. The “final HPLC purity” value in data set [2] (setting [4]) is on record as > 99%. Further, in data set [2] (scale 40 µmol), the isolated yield is reported as 11%.

The values are drawn from PMC10384862 (Pharmaceuticals, 2023).
